Article PMC9017934
Results are given in words; binding and its absence hold for the method and conditions named. Some binding calls cover weakened binding; strength is not graded here.

Molecular target: T1, Mitogen-activated protein Kinase Kinase (MKK3), full length (human), P46734
T1 chain: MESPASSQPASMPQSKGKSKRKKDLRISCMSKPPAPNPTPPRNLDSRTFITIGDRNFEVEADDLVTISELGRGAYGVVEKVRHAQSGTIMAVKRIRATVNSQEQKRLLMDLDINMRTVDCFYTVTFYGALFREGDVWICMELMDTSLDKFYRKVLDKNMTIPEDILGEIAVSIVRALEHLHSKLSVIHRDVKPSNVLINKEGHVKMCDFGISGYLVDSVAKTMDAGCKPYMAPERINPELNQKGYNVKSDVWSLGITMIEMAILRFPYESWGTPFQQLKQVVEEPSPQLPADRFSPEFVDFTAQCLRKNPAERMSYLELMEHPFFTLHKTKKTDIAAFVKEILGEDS
Test: SEC; Superdex 75 Increase 10/300 GL after His Trap; 50 mM Tris HCl pH 8, 150 mM NaCl, 0.25 mM TCEP; 4°C; molecular weights of the peaks estimated from a calibration curve of LMW standards; kinases from all strains except Arctic Express; both purified
Settings: remark: other sources report otherwise

- binding: binds
B1: Mitogen-activated protein Kinase Kinase (MKK3), full length, P46734-1 1-347 (enzyme)
chain: T1 chain
